From article PMC8429728, “TNK1 is a ubiquitin-binding and 14-3-3-regulated kinase that can be targeted to block tumor growth” (Nature Communications, 2021)

Tests used:
Test in all cases: co-IP; FLAG-TNK1 (WT or mutants) precipitated on anti-DYKDDDDK resin from HEK-293T lysate (10 mM HEPES KOH pH 7.5, 150 mM KCl, 0.01% IGEPAL), 1 h 4 °C, washed with PBS; immunoblotted for 14-3-3 or ubiquitin; in Fig. 2c cells treated with 1 uM kinase inhibitors for 4 h
[1] = molecular target: T1, FLAG-TNK1 (wild type) (human) (UniProt Q13470)
T1 sequence: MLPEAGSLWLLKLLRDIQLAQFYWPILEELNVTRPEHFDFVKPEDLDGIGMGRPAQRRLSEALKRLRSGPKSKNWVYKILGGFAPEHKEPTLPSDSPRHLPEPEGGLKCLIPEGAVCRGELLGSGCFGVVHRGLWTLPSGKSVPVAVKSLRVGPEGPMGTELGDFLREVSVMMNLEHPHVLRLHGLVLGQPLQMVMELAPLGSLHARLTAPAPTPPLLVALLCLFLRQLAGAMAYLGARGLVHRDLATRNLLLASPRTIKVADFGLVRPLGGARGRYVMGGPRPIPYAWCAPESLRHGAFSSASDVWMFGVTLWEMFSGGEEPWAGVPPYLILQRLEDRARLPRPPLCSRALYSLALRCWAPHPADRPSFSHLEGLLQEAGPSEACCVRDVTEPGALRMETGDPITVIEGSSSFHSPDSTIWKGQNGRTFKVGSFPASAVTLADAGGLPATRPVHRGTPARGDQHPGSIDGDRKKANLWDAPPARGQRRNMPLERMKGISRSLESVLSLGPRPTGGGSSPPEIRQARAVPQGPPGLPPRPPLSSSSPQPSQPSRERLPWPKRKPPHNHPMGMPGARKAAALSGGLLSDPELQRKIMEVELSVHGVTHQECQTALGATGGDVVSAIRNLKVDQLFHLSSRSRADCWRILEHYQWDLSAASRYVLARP

FLAG-TNK1 S500A (human) = molecular target: T2, FLAG-TNK1 S500A (human) (UniProt Q13470)
T2 sequence: T1 sequence with S500A

FLAG-TNK1 S505A (human) = molecular target: T3, FLAG-TNK1 S505A (human) (UniProt Q13470)
T3 sequence: T1 sequence with S505A

- binding [1]: binds
- binding (FLAG-TNK1 S500A (human)): binds
- binding (FLAG-TNK1 S505A (human)): binds
Substance: 14-3-3 (endogenous, isoform not told) (human (endogenous in HEK-293T or A549))

Where a chain is given by its changes, count along the chain named. These are yes or no findings as the source states them, for the method shown. Binding seen in cells or lysates may run through a third protein. A result given as binding can be weak or reduced; the word gives no strength. Sequences can lack the tags named with a protein.
